Data reported in PMC5483465.

Molecular target: T1, La ribonucleoprotein autoantigen (UniProt P05455)
T1 sequence: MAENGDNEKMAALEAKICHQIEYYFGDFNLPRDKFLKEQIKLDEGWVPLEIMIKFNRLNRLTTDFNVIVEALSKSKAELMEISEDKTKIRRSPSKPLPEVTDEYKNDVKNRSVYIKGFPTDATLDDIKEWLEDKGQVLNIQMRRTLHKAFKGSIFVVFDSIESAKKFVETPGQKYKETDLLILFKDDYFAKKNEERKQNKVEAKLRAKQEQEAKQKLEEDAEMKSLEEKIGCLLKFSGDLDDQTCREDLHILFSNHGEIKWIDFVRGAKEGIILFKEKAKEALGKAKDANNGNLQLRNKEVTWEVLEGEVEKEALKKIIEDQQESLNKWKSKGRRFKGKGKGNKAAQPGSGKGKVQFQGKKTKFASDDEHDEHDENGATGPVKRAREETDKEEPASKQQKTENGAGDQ
Assay: SPR; BIAcore 2000; ribonucleoproteins immobilised on a CM-4 chip by amine coupling (50-3,000 RU); Hb flowed at 20-30 ul/min, 25°C; regeneration 10 mM NaOH; 1:1 (Langmuir) Binding Model; both purified

## ferric (Fe^3+) hemoglobin, murine (mouse) (complex)
  binding: binds

## ferrous (Fe^2+) hemoglobin, murine (mouse) (complex)
  binding: binds

Results are given in words; binding and its absence hold for the method and conditions named. Binding can be weak; no strength is given.
